Data as given in PubChem BioAssay AID686943 (Drosophila RNAi Screening Center, 2013)
In all, the deposit lists about 23,000 reagents; shown is a random part of those that have a named target and a result. 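Extra replicates exist only for a retested subset of genes; insulin dose and duration not given; both raised and lowered dpERK matter.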 Reagents against one gene are numbered here. A plus sign joins genes that one reagent is predicted to hit. Not stated in the record: the amount of reagent, the time to read-out.

Test: 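Search across the genome for regulators of signalling from receptor tyrosine kinase to ERK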 (primary screen)
Cell system: Drosophila S2R+ haemocyte-like cells expressing YFP-tagged ERK (Rolled)
Reagents: long dsRNA against Drosophila genes
Treatment: insulin stimulation versus unstimulated cells; dose and duration not given
Measured: 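Per-plate z-scores of phospho-ERK immunostaining normalised to YFP-tagged ERK, measured with and without insulin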
Reading the numbers: replicate 1, z-score of dpERK with insulin and replicate 2, z-score of dpERK with insulin: higher = more active ERK per ERK-YFP after insulin; replicate 1, z-score of dpERK under basal conditions: higher = more basal active ERK per ERK-YFP; replicate 1, z-score of ERK-YFP with insulin: higher = more YFP-tagged ERK signal

Target gene	dsRNA no.	replicate 1, z-score of dpERK with insulin	replicate 2, z-score of dpERK with insulin	replicate 1, z-score of dpERK under basal conditions	replicate 1, z-score of ERK-YFP with insulin
GCS2alpha (Glucosidase 2 alpha subunit)	1	0.77	-0.48	-0.39	-0.14
Jon66Ci (Jonah 66Ci)	1	-0.56	-0.35	1.26	0.14
dpr5 (defective proboscis extension response 5)	1	-1.25	0.35	0.91	2.09
Pabp2	1	-1.84	-1.9	0.01	-3.81
FASN2 (Fatty acid synthase 2)	1	0.39	0.87	-0.11	0.47
FASN2 (Fatty acid synthase 2)	2	0.57	0.39	-0.27	0.18
Ctps (CTP synthase)	1	-0.05	-1.57	2.32	-0.75
Ctps (CTP synthase)	2	1.64	0.69	0.65	-0.22
Ctps (CTP synthase)	3	-3.59	-0.76	0.67	-0.98
Not3 (CCR4-NOT transcription complex subunit 3)	1	-4.58	-3.62	-0.81	-2.22
CG12716	1	0.42	0.63	-0.28	0.14
CG10232	1	0.66	-0.17	-0.46	0.28
CG3663	1	0.16	-0.36	-0.99	-0.07
Pbgs (Porphobilinogen synthase)	1	1.42	0.06	0.47	0.08
CG2652	1	0.43	1.05	-0.28	0.01
CG2652	2	-0.41	-0.29	0.45	0.8
CG33491 (retired record) + CG33496 (retired record) + CG33487 (retired record) + 1 more	1	0.39	0.16	0.64	0.57
mtd (mustard)	1	0.38	0.82	-0.05	-0.73
mtd (mustard)	2	0.47	0.78	-0.65	0
mtd (mustard)	3	0.72	-0.57	0.71	0.19
Grip84 (Gamma-tubulin ring protein 84)	1	-1.13	0.73	2.22	-0.18
Lmpt (Limpet)	1	0.88	0.28	0.92	-0.8
Lmpt (Limpet)	2	-0.54	0.33	0.2	0.66
Lmpt (Limpet)	3	-0.04	-0.1	0.71	0.18
Lmpt (Limpet)	4	0.82	0.02	0	0.11
Lmpt (Limpet)	5	0.91	-0.5	0.02	0.36
Lmpt (Limpet)	6	-1.43	-1.61	-0.73	1.21
Lmpt (Limpet)	7	-0.17	-0.66	2.86	-0.14
CG16965	1	-0.29	1.53	-0.2	0.29
ais (aramis)	1	-0.11	-0.64	0.78	0.31
Jra (Jun-related antigen)	1	2.46	1.52	3.95	1.45
ArfGAP1 (ADP-ribosylation factor GTPase activating protein 1)	1	1.13	1.48	2.05	-1.95
CIAPIN1 (Cytokine induced apoptosis inhibitor 1)	1	0.43	0.8	0.44	-0.34
eIF3m (eukaryotic translation initiation factor 3 subunit m)	1	-1.13	-2.01	-2.46	-0.49
Surf1 (Surfeit 1)	1	-1.94	-1.82	-0.66	-1.7
Surf1 (Surfeit 1)	2	0.23	-0.54	-1.19	-0.04
CG14691	1	-0.22	-0.17	0.69	0.06
Cul6 (Cullin 6)	1	-0.61	-0.15	-0.75	-0.03
CG14763	1	0.45	0.6	-0.28	0.6
